The values below come from PubChem BioAssay AID1347426 (Functional Genomics Laboratory (NCATS/FGL), 2020).

In all, about 31,000 sequences went through this assay and about 1,400 (4.5%) were called active.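 The calls were made as follows: active = median seed-adjusted z-score above 1 or below -1; inactive = the rest.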 The list shows a part of the results.

The experiment in a line: Novel Modifiers of Survival Motor Neuron (SMN) Protein: Gene Identification via Genome-wide siRNA Screen.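 Also: luminescence tracks full-length SMN protein made from the SMN2 reporter.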 The note with it: HEK293T SMN2-luciferase reporter, siRNA knockdown, 72 h; actives lie on both sides. An outline of the steps:
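Each of three siRNAs per gene is reverse-transfected (1 pmol) into reporter HEK293T cells whose luciferase output tracks SMN protein level. After 72 h culture, ONE-Glo luminescence is control-normalized, log10-transformed and MAD-standardized; Common Seed Analysis deprioritizes seed-driven hits.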
For orientation: In a reporter assay the amount or activity of a reporter protein is the signal.
Consider CAACCACCCUCAAUCGAGATT against FLRT3, for which the median seed-adjusted z-score is inactive: -0.468.

On to GCACAAAAACUGUUUCCGATT against CSRP2, for which the median seed-adjusted z-score was inactive: -0.829.

As for CCCAUUUCCUCAGUACCCATT against ABI3, the median seed-adjusted z-score is inactive: 0.114.

As for GCGUGGAGCUGAGAGAUAATT against TNF, the median seed-adjusted z-score was inactive: -0.138.

Consider GAAUUUCGAUGAGAGAAAATT against CCNC, for which the median seed-adjusted z-score was inactive: -0.606.

As for GAUGGUCGGUUGGAUCUAATT against SCGN, the median seed-adjusted z-score is inactive: -0.0164.

As for GCCACUCUCCGGACAGUUUTT against FOXD3, the median seed-adjusted z-score is inactive: 0.224.

Regarding GAAGUACGUUGGAUAUCAATT against ZMYM6, the median seed-adjusted z-score is inactive: -0.355.

For the sequence CAAUGGAAGUAGACGAUGATT against BPTF, the median seed-adjusted z-score is inactive: -0.273.

In the case of GGAUUUUCGAGAUCAGCGATT against NCOA5, the median seed-adjusted z-score was inactive: 0.947.

As for GUUUGGAGUGUAAAGCGAATT against DDX59, the median seed-adjusted z-score is inactive: -0.859.

As to GUACUGCGAGGAACCCUUUTT against PUS1, the median seed-adjusted z-score is inactive: -0.308.

As for CCACUAAAUUUGAACUAGATT against CLP1, the median seed-adjusted z-score is inactive: -0.372.

For CCAGAGGAUUGUGACUUCATT against CAMP, the median seed-adjusted z-score was inactive: -0.622.

Consider GGCUUUUACCCGCAUGUCATT against ZNF460, for which the median seed-adjusted z-score is inactive: -0.302.

For GCUUCGAAUGGAUCUAGAATT against MYH8, the median seed-adjusted z-score was inactive: 0.0648.

Consider CCAGAGGAGGUACUACAAATT against SCD, for which the median seed-adjusted z-score is inactive: -0.982.

For CAACCUUAUUGAUAGAAGATT against MOBKL1A, the median seed-adjusted z-score is inactive: 0.549.

With GCAACCAACUGGACGAAUUTT against FLRT2, the median seed-adjusted z-score was inactive: -0.00573.

For GCGGAGAUGUGAACGUGGATT against KRT16, the median seed-adjusted z-score is inactive: -0.233.

Turning to ACAUGAAGACGGACUUUAATT against POP7, the median seed-adjusted z-score was inactive: 0.114.

For the sequence GCAUAUCCAUGGACUGAUATT against PDE5A, the median seed-adjusted z-score is inactive: 0.

As for CGAAUGCAUCAGAUCAACATT against UBA2, the median seed-adjusted z-score was inactive: 0.694.

Regarding GACGAGACCUCUUCUCUCATT against ART1, the median seed-adjusted z-score was inactive: 0.0033.

With GAGCCUAUGUGGAGAAGUATT against RNPEPL1, the median seed-adjusted z-score is inactive: 0.

For the sequence CCGGCUACCUGAUCGUGUATT against PITPNM1, the median seed-adjusted z-score was inactive: -0.203.

On to CCAUAGUGAAGCAAUCUAATT against ANGPTL3, for which the median seed-adjusted z-score was inactive: 0.117.

On to AGGACUCUCUUGUCAGUCATT against KLF17, for which the median seed-adjusted z-score is inactive: -0.131.

For the sequence GAAUCGAAAGUUCUAGAAATT against EMR3, the median seed-adjusted z-score was inactive: 0.169.

For GUGUUUCCGGAAGUGUAUATT against TIMM13, the median seed-adjusted z-score is inactive: -0.422.

In the case of GGAUGGAGGGAAAAUUAUATT against NPR3, the median seed-adjusted z-score was inactive: -0.436.

Regarding CGUGCACUAUAUUGCAGUUTT against PRMT2, the median seed-adjusted z-score is inactive: 0.0895.

CACUGAAGAAUGCUGGUGATT against TRIM40: the median seed-adjusted z-score was inactive: 0.108.

On to UUGUCAAGCUGGAGAAAAATT against WFDC3, for which the median seed-adjusted z-score is inactive: -0.644.

As for GCAAGUCGAUGUCGUAAUATT against AHCYL1, the median seed-adjusted z-score was inactive: 0.

Take GGAAUUUCCGAAACUAUAATT against SLC25A33: the median seed-adjusted z-score was inactive: -0.0252.

Take GAACUUUAUUGCAAAGUUUTT against CSRP3: the median seed-adjusted z-score is inactive: 0.15.

With GAGCAGCUCUUAAGCAACATT against SAPS1, the median seed-adjusted z-score was active: 1.16.

Take CAUUAACCAGUGAACGCAATT against AADAT: the median seed-adjusted z-score was inactive: 0.0891.

With GCUGCUCUGUUGAUGCUUATT against POMT1, the median seed-adjusted z-score is inactive: 0.327.

Turning to GUAUGUUGCAUAACAAGUUTT against NOX4, the median seed-adjusted z-score is inactive: -0.246.

CAUUGAAGAAUUCCGAUUATT against TLR4: the median seed-adjusted z-score was inactive: 0.113.

In the case of GGGCGAUACCUUGAAGUAATT against MOV10L1, the median seed-adjusted z-score is inactive: -0.0497.

Turning to GCAAUUCACUACUUCCGUATT against UXS1, the median seed-adjusted z-score was inactive: 0.25.

For the sequence CAAUGAUGGUAAAUGUAAATT against AMY2A, the median seed-adjusted z-score is inactive: -0.266.

For CCUAUUCAAUGAUAACAUUTT against RSPRY1, the median seed-adjusted z-score is inactive: 0.0814.

In the case of GGAUUCUGCUAGUCCACGATT against TOP2A, the median seed-adjusted z-score was inactive: -0.187.

For GGAUGAGAAGGCGCGCAUUTT against PPM1F, the median seed-adjusted z-score was inactive: -0.231.

As to GGACUGACUCGGGCAAUAATT against LRP8, the median seed-adjusted z-score is inactive: -0.547.

Consider GAGCUGAUCUGUUACAAGUTT against DAK, for which the median seed-adjusted z-score is inactive: -0.372.

Take CCAUCCCGAUGUCCAUGUUTT against ATP8B3: the median seed-adjusted z-score was inactive: 0.

As to GGCGGAAGCUCUACAUACATT against FLJ16165, the median seed-adjusted z-score is inactive: -0.404.

Consider CAGCAAAUUGUAGACAAAATT against PPP3R1, for which the median seed-adjusted z-score is inactive: 0.18.

As to GAUUCAAUCUCCCAACUAUTT against TLL2, the median seed-adjusted z-score was inactive: 0.195.

On to GCGUAACACCAAAACACCATT against UGCGL2, for which the median seed-adjusted z-score is inactive: -0.456.

As to GCAUCAUCAAAAAUCCUAUTT against BAZ2A, the median seed-adjusted z-score is inactive: 0.73.

Regarding UGUGCGAACGAGUUCCAUATT against KCNA7, the median seed-adjusted z-score is inactive: 0.394.

With CAGUAUCUGCAUUCAAUCATT against MAPKAPK2, the median seed-adjusted z-score is inactive: -0.543.

Turning to UCGGAGAAGUGAUUUCUUATT against MGMT, the median seed-adjusted z-score is inactive: -0.0549.

On to GCACCGUCAAGGAAGAUAATT against ADAMTSL1, for which the median seed-adjusted z-score is inactive: -0.107.

For the sequence GAUUCGACCAGUUAUUUGATT against SERBP1, the median seed-adjusted z-score is inactive: 0.143.

In the case of GAAACUCCCUGUUCCUAGATT against SERPINA11, the median seed-adjusted z-score is inactive: -0.0879.

CACCCAUGCUGACAGUGAATT against HLA-DMA: the median seed-adjusted z-score is inactive: -0.00543.

In the case of AAAGUAUAAUGACAUCUAUTT against NAP1L5, the median seed-adjusted z-score is inactive: 0.115.

For UGGGAUCUCCGGUUCCGAATT against RIPK4, the median seed-adjusted z-score is inactive: 0.188.

CAUUGUCGUCAGUACCAUATT against FZD6: the median seed-adjusted z-score is inactive: 0.312.

For the sequence CUUGCUAACCCUAAAGGUATT against RECQL5, the median seed-adjusted z-score was inactive: 0.

In the case of CCUUCAUCCGUAUCAUGGATT against POLD1, the median seed-adjusted z-score was inactive: -0.715.
